About 210 (0.4%) of roughly 52,000 sequences were called active.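 How the source made its calls: active means gene whose silencing raises cell survival under the drug, median off-target-corrected z-score across its silencing RNAs 2 or more; inactive means the rest.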 This is one part of the list.
Assay: Resistance to Poly (ADP-Ribose) Polymerase inhibitor: Gene Identification via Genome-wide siRNA Screen
Conditions: mouse BRCA2 R2336H ES cells, olaparib, CellTiter-Glo viability; active compounds read high
Method in brief: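 Genome-wide siRNA screen (3 siRNAs/gene, 20 nM) in mouse ES cells carrying hypomorphic BRCA2 R2336H; olaparib 500 nM added 48 h post-transfection, CellTiter-Glo viability 72 h later. Normalized to plate-median negative control; MAD z-scores, gene median, seed-adjusted.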

Sequence | z-score
CCUACUAGAUUCCUACUUUTT against 2810429O05Rik | inactive: -1.19
CCCUAACUACUUCAUGAAUTT against Paip1 | inactive: 0.365
GGGAAUAAUCUACAAGCCATT against 6530421E24Rik | inactive: -1.33
GCACCGGCUUUACUAAUGGTT against Ppnr | inactive: -1.09
GCGACUACAAGGAUACCCUTT against Krt2-6g | inactive: 1.07
GAGAUGGAAAGUGGUUUCUTT against Olfr1226 | inactive: -0.551
GGAAUAAGAUGAAAUACCCTT against Tmeff2 | inactive: -0.49
GGAGGACAAUGAUUUCCGATT against Ndst3 | inactive: 0.936
GGACCAGAAAUACAUUUUCTT against Arhgef2 | inactive: -0.784
UCCUCCUGUCUUACGUACGTT against Gpr10 | inactive: 1.45
CCCUGACUAUACGUAUAACTT against Selpl | inactive: -0.105
UGCGUUUUGUGCUUCCUGUTT against Olfr960 | inactive: -0.259
GGAAUGCAUGCUAAUUCAGTT against Thsd1 | inactive: 1.49
GCAACACAGAUCUUAGAAATT against 1810030O07Rik | inactive: -1.15
GGAAGCUGGUUCUACUGUCTT against Arl6ip1 | inactive: -1.54
GGAGCAGAGAAACUUCUCGTT against Perq1 | inactive: -0.477
GCCUAUGUACAGUUUGAAGTT against Grsf1 | inactive: 0.44
GGUUAUACGCUUAGAUUUATT against Irx5 | inactive: 1.4
GGUUGGAGCACUAGUGAGATT against D1Wsu40e | inactive: -1.05
GGGAAAAUCUCUGAAAGAATT against Bag1 | inactive: -1.37
GGGAACAGCAUGAAGGAAGTT against Kb40 | inactive: 0.497
GGAAACCUGAUUGCAUAUGTT against Nup37 | inactive: -0.985
GGAAUGUGUUGAAAUAUGATT against P4ha3 | inactive: 1.68
GCCACACAGAUACCAGAUATT against Wbscr27 | inactive: -1.29
GGCCACAGAACCACAAAACTT against Pon3 | inactive: 0.142
CGUGGCACUAGAGAUCAAUTT against Arid3c | inactive: -0.696

Retrieved one by one from above (5):
Sequence | z-score
GGAGGACAAUGAUUUCCGATT against Ndst3 | inactive: 0.936
GAGAUGGAAAGUGGUUUCUTT against Olfr1226 | inactive: -0.551
GGCCACAGAACCACAAAACTT against Pon3 | inactive: 0.142
GGAAUGCAUGCUAAUUCAGTT against Thsd1 | inactive: 1.49
CCUACUAGAUUCCUACUUUTT against 2810429O05Rik | inactive: -1.19

Going on with the list.

Sequence | z-score
GAGGAAGUCCACGAAACUATT against Csh1 | inactive: 0.1
CCACAUGUCACAUCUUUUCTT against Mrpl47 | inactive: 0.956
GGAUACUCUGGAGAAGUGUTT against 2410043F08Rik | inactive: -0.993
GGUUGGCAAGUCCUUUUGUTT against BC028265 | inactive: -0.717
GGGACUUGCACUCAUCUUCTT against 2010005O13Rik | inactive: 1.63
GCUACACCGUAACAUGCUATT against C230075L19Rik | inactive: 0.776
GCGAAGAGAUGCUAACUAUTT against Dhx8 | inactive: -2
CCUUCAAUUUCAGUUCAGATT against Olfr1388 | inactive: 0.422
GGAGGAAUCGCACUAUAUUTT against D3Bwg0562e | inactive: 0.0289
GGCCUGAGAUGACAACGACTT against Rpl35 | inactive: -2.94
GGUACGUGAGAGAAUUCUGTT against Trem2 | inactive: 1.18
GUUGCAUUUCUCUCAAAGATT against Olfr799 | inactive: -0.0403
CGUACUGGUACGGAAGCGUTT against Adck1 | inactive: 1.67
CCUGUUGUACUGGAAGGACTT against Rtn2 | inactive: 0.367
CCUGUCAUCACACACUAAUTT against Zbed4 | inactive: 0.915
GGCUACGUGAAGGAACAGUTT against Rps10 | inactive: -2.37
CCCAUCAUUCCUUUCUUACTT against Ndfip2 | inactive: -0.21
AAAGUGCAGAAAAAGCUGATT against Speer4d | inactive: 0.745
GGGAAUUCAGGAACACUUUTT against Galk2 | inactive: -1.36
CCCAUCAGACUUUGACCGUTT against Lbh | inactive: 0.987
GCUUGUUUACAUCGGACUUTT against LOC434881 | inactive: -1.4
GGAUGACAUCACAAGCAUCTT against Il24 | inactive: -0.0873
GGCACUGGCAGGAAAUUACTT against Alg6 | inactive: 1.45
GCAUCAAAAACGAGCCCUUTT against Pscd1 | inactive: -1.63
GGUGUUCGUUGUGUGUCUUTT against Abcc2 | inactive: -0.694
CCAUUAAGAUCCGAAGUAUTT against C330018J07Rik | inactive: 0.42

Sequence | z-score
CCUGUACUACUGAUUAUUATT against Tera | inactive: -1.21
GGCAGCCAACGGAUUAAACTT against Cacna2d1 | inactive: 0.525
GGAAGAGGUGGAGUUUGUGTT against 2310026J01Rik | inactive: 0.684
CCAUUCUUUCCUAUGGCUATT against Olfr1415 | inactive: 1.53
GCCGAAGACGGAGUAAGUATT against Epha4 | inactive: -1.94
GGCCAGAUGACAUUUUAGGTT against Map3k9 | inactive: 0.808
CGAUACCCAACUGUUGAAATT against 4932432K03Rik | inactive: -0.42
GGAUGUGGGCACAAAAACUTT against St6gal1 | inactive: -0.126
GGAAAGAGUAAGAUUUUGATT against Dnahc11 | inactive: 2.77
GGCAGUGAUUGACUUCCUATT against LOC212390 | inactive: -1.1
ACUUCUCCAAGCUGAACCUTT against Ubie | inactive: -1.93
GCAAAAAUUGAAGUCAGUGTT against Serpine2 | inactive: -0.657
GCCCAACAUCUGAACAUGCTT against Olfr738 | inactive: 0.316
GCCCUACGAUACAGCUUCATT against Psmd7 | inactive: -1.93
GUCCAUAAGCGUACAAUUCTT against Olfr410 | inactive: -1.71
GGAGCUAAUAAACUGACCUTT against 2610528K11Rik | inactive: 0.547
GCGAGUUAUUUGGCUCCGATT against 2310026J01Rik | inactive: -0.997
GCUUCGUGAGCAGUAUCUATT against Mcpt6 | inactive: -1.09
GGAGGGAGCAGAUUGAAACTT against 4933424N09Rik | inactive: 0.199
GGUGUUUUUAUGUGAACUUTT against 9330120H11Rik | inactive: -1.01
GGGAUUUGUUAUGUCUGUATT against Sfrs7 | inactive: -2.16
GGAGCUCAGCAUUAUGUAGTT against 2610017G09Rik | inactive: -1.36
GGAUGAGAAUCUUCAGGUUTT against Mtmr3 | inactive: 0.0945
CCAAGUAUUACGGAACAUCTT against 4921506M07Rik | inactive: -0.789
GGAACUUCGACUCUGAGAUTT against 0610039K22Rik | inactive: -0.17
GGCAGGAAACCAACAAAGATT against Bmp8b | inactive: -0.486

Sequence | z-score
GCUUAGACACAUCAAGAGATT against 2310026E23Rik | inactive: 0.473
GGUGUUUAUCCUAAUAAACTT against Sox12 | inactive: 2.38
GGUUUUUUGGUACCAAGUGTT against Unc93b | inactive: -1.93
GGAGACUUAGAAAAAGACUTT against Olfr1426 | inactive: 0.919
GCAGACCGGAUACUGAACATT against Ddx47 | inactive: -2.97
CCCAGGAACAAUAAAGAGGTT against Twist2 | inactive: 1.29
CCAGGUAGAGCAAUUUCUATT against BC034099 | inactive: 0.452
UCAACUCUUGACUUCGCUGTT against Usmg1 | inactive: 0.468
UGGUGGAUAUAGGAUUCUUTT against Clm6 | inactive: 1.35
GCAAGUCUUAAAGCUCUAGTT against Olfr601 | inactive: 0.224
CCACAGUAUCUAAAAAGAGTT against Ubc | inactive: -2.35
GGACUUCAGACAAUCAAAATT against Gbp5 | inactive: 0.153
GGAGAAAGGAAAAUAAGAGTT against Npy6r | inactive: 0.392
GCCAGAACCGCAUAUUCUUTT against Cks2 | inactive: 1.08
GGAAAAACAAUUGAGCAUGTT against 3830421F13Rik | inactive: 0.885
GGCACAGCUUGCUGAAGCUTT against 1110019I14Rik | inactive: -1.72
CCUACAUGACCACAGAGUUTT against 2900006K08Rik | inactive: -0.119
CCUGACACCUAACUUUAAATT against C230013L11Rik | inactive: -0.499
GGAAGUGUACCUCAACAGCTT against Lrig1 | inactive: 1.08
GGAAGAGCUCAACAUCAUUTT against Cnnm1 | inactive: -1.16
CCAUCACCUCUUUGGAACUTT against 1110003A17Rik | inactive: -0.648
GUCUAUCGAUAUUCCAAAATT against D130007C19Rik | inactive: -0.816
GGUGAUGAAAAAGGACAGCTT against Oit1 | inactive: -0.44
GGCAGCAUUAAAACUUAAGTT against 2500003M10Rik | inactive: -0.943
GCUGACUCAUCCAAGAACUTT against 1110014F24Rik | inactive: 0.0873
